{"sequences": {"note": "Chains of the proteins cited; added tags and fusions are not shown. Lines headed by an entry give the natural chain unless they say otherwise; changes in a name come on top.", "UniProt P31749": "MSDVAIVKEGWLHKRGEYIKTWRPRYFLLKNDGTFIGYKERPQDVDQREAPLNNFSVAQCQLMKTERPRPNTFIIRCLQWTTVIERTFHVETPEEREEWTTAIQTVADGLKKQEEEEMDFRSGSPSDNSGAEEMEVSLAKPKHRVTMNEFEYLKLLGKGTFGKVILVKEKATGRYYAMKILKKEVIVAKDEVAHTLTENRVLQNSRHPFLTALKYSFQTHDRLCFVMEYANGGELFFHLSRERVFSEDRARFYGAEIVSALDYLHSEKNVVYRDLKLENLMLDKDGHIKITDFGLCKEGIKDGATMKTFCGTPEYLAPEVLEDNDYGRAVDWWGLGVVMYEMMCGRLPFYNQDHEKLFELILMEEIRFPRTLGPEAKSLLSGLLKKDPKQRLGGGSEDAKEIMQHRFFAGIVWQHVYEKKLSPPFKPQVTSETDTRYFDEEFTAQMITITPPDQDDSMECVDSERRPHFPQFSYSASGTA"}, "source": "paper PMC2845649", "binders": {"B1": {"name": "PDK1-IFPC, O15530 1-556 (protein)", "chain": "MARTTSQLYDAVPIQSSVVLCSCPSPSMVRTQTESSTPPGIPGGSRQGPAMDGTAAEPRPGAGSLQHAQPPPQPRKKRPEDFKFGKILGEGSFSTVVLARELATSREYAIKILEKRHIIKENKVPYVTRERDVMSRLDHPFFVKLYFTFQDDEKLYFGLSYAKNGELLKYIRKIGSFDETCTRFYTAEIVSALEYLHGKGIIHRDLKPENILLNEDMHIQITDFGTAKVLSPESKQARANSFVGTAQYVSPELLTEKSACKSSDLWALGCIIYQLVAGLPPFRAGNEYLIFQKIIKLEYDFPEKFFPKARDLVEKLLVLDATKRLGCEEMEGYGPLKAHPFFESVTWENLHQQTPPKLTAYLPAMSEDDEDCYGNYDNLLSQFGCMQVSSSSSSHSLSASDTGLPQRSGSNIEQYIHDLDSNSFELDLQFSEDEKRLLLEKQAGGNPWHQFVENNLILKMGPVDKRKGLFARRRQLLLTEGPHLYYVDPVNKVLKGEIPWSQELRPEAKNFKTFFVHTPNRTYYLMDPSGNAHKWCRKIQEVWRQRYQSHPDAAVQ"}, "B2": {"name": "PDK1(R474A)-IFPC (protein, UniProt O15530 1-556)", "chain": "B1 chain with R474A"}, "B3": {"name": "PDK1-IFPC (protein, UniProt O15530 1-556)", "chain": "B1 chain"}}, "key": {"IFPN-AKT1, P31749 [1]": {"target": "IFPN-AKT1, P31749", "test": "co-IP; HeLa cells stably expressing PDK1-IFPC and IFPN-AKT1, lysed in NP40 buffer (Tris-HCl pH 8.0 50 mM, NaCl 150 mM, NP-40 1%); IP with anti-AKT1 or normal IgG, blots with anti-PDK1 and anti-AKT", "settings": "remark: other sources report otherwise"}, "IFPN-AKT1, P31749 [2]": {"target": "IFPN-AKT1, P31749", "test": "split reporter; protein-fragment complementation of IFP (Venus) fragments IFPN and IFPC, fluorescence in living HeLa cells, stably or transiently transfected; serum starved, 10% serum 10 min, or LY294002 20 µM 3 h", "settings": "remark: other sources report otherwise"}, "IFPN-AKT1": {"target": "IFPN-AKT1 (UniProt P31749)", "test": "split reporter; protein-fragment complementation of IFP (Venus) fragments IFPN and IFPC, fluorescence in living HeLa cells, stably or transiently transfected; serum starved, 10% serum 10 min, or LY294002 20 µM 3 h"}, "IFPN-AKT1(R25A)": {"target": "IFPN-AKT1(R25A) (UniProt P31749)", "test": "split reporter; protein-fragment complementation of IFP (Venus) fragments IFPN and IFPC, fluorescence in living HeLa cells, stably or transiently transfected; serum starved, 10% serum 10 min, or LY294002 20 µM 3 h"}}, "note": "Residue numbers refer to the chain shown, from its start. In names and notes the source's numbering stands. These are yes or no findings as the source states them, for the method shown. Binding seen in cells or lysates may run through a third protein. Some results given as binding are weak or reduced against the parent protein; the word gives no strength."}
{"binder": "B1", "values": [{"measurement": "binding", "setting": "IFPN-AKT1, P31749 [1]", "value": "binds"}, {"measurement": "binding", "setting": "IFPN-AKT1, P31749 [2]", "value": "binds"}]}
{"binder": "B2", "values": [{"measurement": "binding", "setting": "IFPN-AKT1", "value": "binds"}, {"measurement": "binding", "setting": "IFPN-AKT1(R25A)", "value": "binds"}]}
{"binder": "B3", "values": [{"measurement": "binding", "setting": "IFPN-AKT1(R25A)", "value": "binds"}]}
